Counter-ions that a name gives are not always drawn. Some entries share one result that the patent states for a list of compounds. For at least one compound, name, drawing or mass did not settle the structure.
Assay: IG (lipid-mRNA adduct impurity) in binary mixtures of RNA and Compound III, ion pair reversed phase HPLC
Assay type: physicochemical
Source text: To detect and quantify the amount of IG present in LNP formulations comprising polynucleotides and lipid, a protocol was developed (FIG. 2) that included (1) extraction of the polynucleotide molecules (e.g. precipitation, liquid: liquid extraction); (2) assessment of integrity (e.g. purity, length) of the isolated polynucleotides by known methods (e.g. fragment analyzer, gel electrophoresis); and (3) analysis of the isolated polynucleotides by HPLC.
RNA was extracted from the LNP formulation by precipitation in ammonium acetate in isopropanol; resuspended in water to target a final RNA concentration of 0.1 mg/mL; and assessed by fragment analyzer capillary electrophoresis and ion pair reversed phase HPLC (performed on a Thermo DNApac RP 100×2.1 mm column at 65° C., with mobile phases containing 50 mM dibutylammonium acetate and 100 mM triethylammonium acetate in water and acetonitrile). Elution with an acetonitrile gradient provided an RNA separation primarily driven by mRNA length and sensitive to any added hydrophobic elements. Two prominent peaks were apparent on the HPLC chromatogram (FIG. 2), including a “main peak” comprising non-adduct mRNA and an “IG” peak comprising mRNA with one or more covalent modifications. The mass fraction of RNA containing at least one lipid adduct was determined by integrating the area under the curve (AUC) of all RNA peaks (including products shorter than the full-length product, the full-length product, and the hydrophobic modified RNA) and taking the late-eluting region as an area percent of the total peak area.
Compound III was dissolved in ethanol at a concentration of 4 mg/mL, and the RNA diluted in sodium acetate buffer pH 5.5; the RNA and lipids were then mixed in 25% ethanol. Samples were held at 25° C., and the RNA was periodically extracted by precipitation in isopropanol and analyzed by ion pair reversed phase (FIGS. 5 and 6A, data marked by *).

[1] = Compound III pre-treated with aminooxy agent, 25 C, after 18 hours
[2] = 1 mM agent, 25 C, after 18 hours
[3] = 5 mM agent, after 13 days of incubation at 25 C

Row | Compound | percentage of IG [1] | percentage of IG [2] | percentage of IG [3]
1 | CON [Methoxyamine, Methoxyamine hydrochloride] | less than 1% | – | –
2 | CC(=O)N[C@@H](CS)C(=O)O [N-acetyl cysteine] | – | less than 10% | less than 10%
3 | Cl.NOCc1c(F)c(F)c(F)c(F)c1F [PFBHA, O-(2,3,4,5,6-Pentafluorobenzyl)hydroxylamine hydrochloride] | less than 1% | – | –
4 | [BH4-].[Na+] [sodium borohydrate] | – | less than 10% | –
5 | O=S([O-])S(=O)(=O)[O-].[Na+].[Na+] [sodium metabisulfite] | – | – | less than 10%
